Test results as given in patent US10532082B2, “SOCS1-derived peptide for use in chronic complications of diabetes” (Fundació Hospital Universitari Vall d'Hebron-Institut de …, priority 2014, dated 2020).

Test system: diabetic mice (db/db)
Test: Weight and glycemia in the model of diabetic retinopathy
Assay type: in vivo
Details: eye drops 15 days

miS1: SEQ ID NO 1 DTHFRTFRSHSDYRRI, kinase inhibitory region of murine SOCS1, bound to lysine-palmitate at the N-terminal end, tyrosine phosphorylated (N-terminal lysine-palmitate; tyrosine phosphorylated; A synthetic “kinase inhibitory region” of murine SOCS1 protien)
Blood glucose level throughout the study: did not affect | body weight throughout the study: did not affect
